No constants are given. Whether binding was seen depends on the method and setting. Binding can be weak; no strength is given.
Molecular target: Pig type II collagen (pig)
Test: ELISA on type II collagen

binding: binds
B1: E4 monoclonal antibody to type II collagen (MabCII, clone E4-D4) (antibody, mouse IgG2a, kappa, V domains shown)
VH: EVQLVESGGGLVKPGGSLKVSCEASGFTFSDYGMHWVRQAPEKGLEWVAYISSVSSTIYYADTVEGRFTISRDNVRNTLFLQMTSLRSEDTAMYYCAREGWLPLFAFWGQGTLVTVSA
VL: DIVLTQSHKFMSTSVGDRVSITCKASQDVSITVAWYQQKPGQSPKLLIYSASYRNPGVPDRFTGSGSGTDFNFTISTVQAEDLAVYYCQQYYIIPWTFGGGTKLEFKR

Source: US20200197532A1
